Taken from: PubChem BioAssay AID493246 (Drosophila RNAi Screening Center, 2011)
In all, the deposit lists about 21,000 reagents; shown is an unselected part of those with a known target gene and a result. In the full data, 429 (2%) were called active. 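Values are raw and not normalised between plates; calls rest on per-plate z-scores that were not deposited.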 Reagents against one gene are numbered here. A plus sign joins genes that one reagent is predicted to hit. The record does not give: the amount of reagent, the time to read-out.

Test: 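Genes fly cells need to grow and stay alive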 (primary screen)
System: Drosophila Kc and S2R+ cells
Knock-down reagent: long dsRNA against Drosophila genes
Measurement: 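Raw, unnormalised count of remaining cells in each well; per-plate z-scores of cell number underlie the calls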
Direction: Kc cell number and S2R+ cell number: higher = more cells remaining
Rule for the call: 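Counted as a hit if cell number falls by a z-score of at least 3 within its plate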

Cyp308a1
- Kc cell number, rep 1: 1.50e6
- Kc cell number, rep 2: 1.59e6
- S2R+ cell number, rep 1: 1.05e6
- S2R+ cell number, rep 2: 1.11e6
- activity call: inactive

BicC
- Kc cell number, rep 1: 1.57e6
- Kc cell number, rep 2: 1.60e6
- S2R+ cell number, rep 1: 1.35e6
- S2R+ cell number, rep 2: 1.57e6
- activity call: inactive

Ilp6
- Kc cell number, rep 1: 1.49e6
- Kc cell number, rep 2: 1.49e6
- S2R+ cell number, rep 1: 1.00e6
- S2R+ cell number, rep 2: 1.10e6
- activity call: inactive

CG17826
- Kc cell number, rep 1: 1.36e6
- Kc cell number, rep 2: 1.40e6
- S2R+ cell number, rep 1: 1.20e6
- S2R+ cell number, rep 2: 1.26e6
- activity call: inactive

CG14339
- Kc cell number, rep 1: 1.49e6
- Kc cell number, rep 2: 1.51e6
- S2R+ cell number, rep 1: 1.03e6
- S2R+ cell number, rep 2: 1.17e6
- activity call: inactive

GlcAT-S
- Kc cell number, rep 1: 1.27e6
- Kc cell number, rep 2: 1.34e6
- S2R+ cell number, rep 1: 1.12e6
- S2R+ cell number, rep 2: 1.21e6
- activity call: inactive

aos
- Kc cell number, rep 1: 1.29e6
- Kc cell number, rep 2: 1.56e6
- S2R+ cell number, rep 1: 1.37e6
- S2R+ cell number, rep 2: 1.41e6
- activity call: inactive

Pde9 #1
- Kc cell number, rep 1: 1.71e6
- Kc cell number, rep 2: 1.53e6
- S2R+ cell number, rep 1: 1.05e6
- S2R+ cell number, rep 2: 1.10e6
- activity call: inactive

Pde9 #2
- Kc cell number, rep 1: 1.54e6
- Kc cell number, rep 2: 1.63e6
- S2R+ cell number, rep 1: 1.04e6
- S2R+ cell number, rep 2: 1.17e6
- activity call: inactive

Pde9 #3
- Kc cell number, rep 1: 1.62e6
- Kc cell number, rep 2: 1.67e6
- S2R+ cell number, rep 1: 1.04e6
- S2R+ cell number, rep 2: 1.14e6
- activity call: inactive

Pde9 #4
- Kc cell number, rep 1: 1.81e6
- Kc cell number, rep 2: 1.72e6
- S2R+ cell number, rep 1: 1.11e6
- S2R+ cell number, rep 2: 1.16e6
- activity call: inactive

CG44001 + CG33995 #1
- Kc cell number, rep 1: 1.53e6
- Kc cell number, rep 2: 1.54e6
- S2R+ cell number, rep 1: 1.11e6
- S2R+ cell number, rep 2: 1.26e6
- activity call: inactive

CG44001 + CG33995 #2
- Kc cell number, rep 1: 1.36e6
- Kc cell number, rep 2: 1.60e6
- S2R+ cell number, rep 1: 3.54e5
- S2R+ cell number, rep 2: 1.49e5
- activity call: inactive

2 entries from above, showing only “Kc cell number, rep 2”.
CG44001 + CG33995 #1: 1.54e6
CG44001 + CG33995 #2: 1.60e6
